PubChem BioAssay AID743454 | Peter MacCallum Cancer Centre | 2014
Purpose: 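Search for knock-downs that restore vorinostat killing in resistant colon cancer cells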 (primary screen). Cell system: human HCT116-VR colon cancer cells, selected for vorinostat resistance. Reagent: siRNA pool against human genes, 40 nM siRNA pool. Duration: vorinostat for 24 h, read-out about 72 h after transfection. Treatment: vorinostat at 2.5 µM final. Read-out: 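Two measures, CellTiter-Fluor viability and luminescent caspase 3/7 activity, each as fold change against same-plate mock wells, mean of duplicates, then screen-wide robust z-score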. Scale: viability robust z-score: higher = more viable cells than screen typical; caspase robust z-score: higher = more caspase 3/7 activity than screen typical. Active means: 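a knock-down is a hit when classed RV1 or RV2 for lowered viability, or CA1 or CA2 for caspase activation; those lethal without drug were dropped; hits were retested singly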.
The deposit covers about 18,000 reagents; this is a random part of them. Of all reagents, 450 (2.5%) are marked active. 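Single biological run; no consistent viability z cut-off exists, so the class columns, not z-scores, define the calls.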 Entries without a mark were called inactive.

The first 8 records as a preview:
| Target gene | viability hit class | caspase hit class | viability robust z-score | caspase robust z-score |
| --- | --- | --- | --- | --- |
| GLOD4 (GeneID 51031) | no change | no change | 1.05 | -0.7 |
| CLTB (GeneID 1212) | no change (active) | CA2 (caspase activation) | -1.36 | 5.9 |
| HRH2 (GeneID 3274) | no change | no change | -1.77 | 4.3 |
| XPO1 (GeneID 7514) | no change | no change | -2.65 | -0.42 |
| BBS10 (GeneID 79738) | no change | no change | -0.5 | -1.03 |
| SCHIP1 (GeneID 29970) | no change | no change | 0.24 | -0.34 |
| PTPN2 (GeneID 5771) | no change | no change | 0.13 | -0.73 |
| ADCY10 (GeneID 55811) | no change | no change | 0.22 | -0.58 |

The listing, from the first entry:
| Target gene | viability hit class | caspase hit class | viability robust z-score | caspase robust z-score |
| --- | --- | --- | --- | --- |
| GLOD4 (GeneID 51031) | no change | no change | 1.05 | -0.7 |
| CLTB (GeneID 1212) | no change (active) | CA2 (caspase activation) | -1.36 | 5.9 |
| HRH2 (GeneID 3274) | no change | no change | -1.77 | 4.3 |
| XPO1 (GeneID 7514) | no change | no change | -2.65 | -0.42 |
| BBS10 (GeneID 79738) | no change | no change | -0.5 | -1.03 |
| SCHIP1 (GeneID 29970) | no change | no change | 0.24 | -0.34 |
| PTPN2 (GeneID 5771) | no change | no change | 0.13 | -0.73 |
| ADCY10 (GeneID 55811) | no change | no change | 0.22 | -0.58 |
| SLIT3 (GeneID 6586) | no change | no change | -0.12 | -0.3 |
| BLTP3A (GeneID 54887) | no change | no change | -0.8 | 0.68 |
| TARDBP (GeneID 23435) | no change | no change | -0.48 | -0.87 |
| EIF2AK1 (GeneID 27102) | no change | no change | -0.64 | 2.46 |
| DNMT3L (GeneID 29947) | no change | no change | -0.46 | 1.33 |
| SHC2 (GeneID 25759) | no change | no change | -0.61 | 3.29 |
| RLIG1 (GeneID 91298) | no change | no change | -0.24 | 1.27 |
| MBNL3 (GeneID 55796) | no change | no change | -3.94 | 1.78 |
| FBXO44 (GeneID 93611) | no change | no change | -1.38 | 0.74 |
| ATAD3B (GeneID 83858) | no change | no change | -0.45 | -0.25 |
| MATR3 (GeneID 9782) | no change | no change | 0.1 | -0.44 |
| SOX15 (GeneID 6665) | no change | no change | 0.18 | 1.31 |
| THEM6 (GeneID 51337) | no change | no change | 2.56 | 0.38 |
| RHOBTB2 (GeneID 23221) | no change | no change | 2.43 | -0.58 |
| SRP72 (GeneID 6731) | no change | no change | -2.62 | -0.31 |
| QPCTL (GeneID 54814) | no change | no change | -1.08 | -0.78 |
| CLDN7 (GeneID 1366) | no change | no change | 0.82 | 2.26 |
| ATF6 (GeneID 22926) | no change | no change | -0.62 | 1.84 |
| CDK15 (GeneID 65061) | no change | no change | 0.57 | -0.62 |
| HLCS (GeneID 3141) | no change | no change | 0.2 | 3.01 |
| TF (GeneID 7018) | no change | no change | -0.84 | 2.42 |
| GSTA5 (GeneID 221357) | no change | no change | 0.6 | -0.17 |
| CDC37 (GeneID 11140) | no change | no change | 0.36 | -0.62 |
| IL6R (GeneID 3570) | no change | no change | 1.49 | 0.9 |
| IPCEF1 (GeneID 26034) | no change | no change | 0.16 | -0.12 |
| RGS18 (GeneID 64407) | no change (active) | CA1 (caspase activation) | 1.03 | 7.22 |
| ANKRD20A5P (GeneID 440482) | no change | no change | -0.05 | -0.98 |
| PGAM1 (GeneID 5223) | RV2 (reduced viability) (active) | no change | -3.12 | 3.27 |
| ARHGAP10 (GeneID 79658) | no change | no change | 0.59 | 0.16 |
| TTLL3 (GeneID 26140) | no change | no change | -2.84 | 0.23 |
| SERPINI2 (GeneID 5276) | no change | no change | 1.84 | 1.45 |
| GNPTG (GeneID 84572) | no change | no change | -0.16 | 4.69 |
| NOVA1 (GeneID 4857) | no change | no change | 0.66 | 1.38 |
| UROD (GeneID 7389) | no change | no change | -1.2 | 1.46 |
| PRKAB2 (GeneID 5565) | no change | no change | -0.18 | -1.32 |
| SPC25 (GeneID 57405) | no change | no change | -0.46 | 0.96 |
| KCNA4 (GeneID 3739) | no change | no change | -0.11 | 0.24 |
| SCRT2 (GeneID 85508) | no change (active) | CA2 (caspase activation) | -1.41 | 5.84 |
| TPRA1 (GeneID 131601) | no change | no change | 1.31 | -0.11 |
| STMN4 (GeneID 81551) | no change | no change | -1.38 | 0.92 |
| GPM6B (GeneID 2824) | no change | no change | -0.72 | -0.6 |
| ZNF562 (GeneID 54811) | no change | no change | 1.14 | -1.07 |
| EIF2AK3 (GeneID 9451) | no change | no change | 0.65 | -0.2 |
| C17orf58 (GeneID 284018) | no change | no change | -0.08 | -0.2 |
| CAB39L (GeneID 81617) | no change | no change | -0.18 | 0.52 |
| TPTE2 (GeneID 93492) | no change | no change | 0.49 | 1.92 |
| NCR2 (GeneID 9436) | no change | no change | 0.56 | -0.1 |
| FAM241B (GeneID 219738) | no change | no change | 0.06 | 0.55 |
| TMEM184C (GeneID 55751) | no change | no change | 0.92 | -0.68 |
| ZNF776 (GeneID 284309) | no change | no change | -0.95 | 0.94 |
| PTTG2 (GeneID 10744) | no change | no change | 0.72 | -0.34 |
| OTOF (GeneID 9381) | no change | no change | 0.68 | 0.63 |
| ROS1 (GeneID 6098) | no change | no change | -0.03 | -0.22 |
| EFHC2 (GeneID 80258) | no change | no change | -0.24 | 0.92 |
| ERCC4 (GeneID 2072) | no change | no change | 0.56 | -0.55 |
| TAS2R38 (GeneID 5726) | no change | no change | -1.32 | -0.07 |
| COL5A3 (GeneID 50509) | no change | no change | 0.88 | -0.88 |
| AAGAB (GeneID 79719) | no change | no change | -0.04 | -0.75 |
| SURF2 (GeneID 6835) | no change | no change | 0.63 | -0.95 |
| CAMTA2 (GeneID 23125) | no change | no change | -0.34 | -0.75 |
| MYH11 (GeneID 4629) | no change | no change | -0.62 | 2 |
| MAGI2 (GeneID 9863) | no change | no change | 0.68 | -0.8 |
| PRMT9 (GeneID 90826) | no change | no change | -0.64 | 0.22 |
| TNFAIP2 (GeneID 7127) | no change | no change | -0.64 | 0.84 |
| VSX2 (GeneID 338917) | no change | no change | -0.31 | 1.49 |
